{
  "sequences": {"note": "By UniProt entry, the sequences of proteins in these tests, tags left out. Where a name states a change or a piece, a line headed by the entry shows the natural chain unless it says otherwise.", "UniProt Q3KQU3": "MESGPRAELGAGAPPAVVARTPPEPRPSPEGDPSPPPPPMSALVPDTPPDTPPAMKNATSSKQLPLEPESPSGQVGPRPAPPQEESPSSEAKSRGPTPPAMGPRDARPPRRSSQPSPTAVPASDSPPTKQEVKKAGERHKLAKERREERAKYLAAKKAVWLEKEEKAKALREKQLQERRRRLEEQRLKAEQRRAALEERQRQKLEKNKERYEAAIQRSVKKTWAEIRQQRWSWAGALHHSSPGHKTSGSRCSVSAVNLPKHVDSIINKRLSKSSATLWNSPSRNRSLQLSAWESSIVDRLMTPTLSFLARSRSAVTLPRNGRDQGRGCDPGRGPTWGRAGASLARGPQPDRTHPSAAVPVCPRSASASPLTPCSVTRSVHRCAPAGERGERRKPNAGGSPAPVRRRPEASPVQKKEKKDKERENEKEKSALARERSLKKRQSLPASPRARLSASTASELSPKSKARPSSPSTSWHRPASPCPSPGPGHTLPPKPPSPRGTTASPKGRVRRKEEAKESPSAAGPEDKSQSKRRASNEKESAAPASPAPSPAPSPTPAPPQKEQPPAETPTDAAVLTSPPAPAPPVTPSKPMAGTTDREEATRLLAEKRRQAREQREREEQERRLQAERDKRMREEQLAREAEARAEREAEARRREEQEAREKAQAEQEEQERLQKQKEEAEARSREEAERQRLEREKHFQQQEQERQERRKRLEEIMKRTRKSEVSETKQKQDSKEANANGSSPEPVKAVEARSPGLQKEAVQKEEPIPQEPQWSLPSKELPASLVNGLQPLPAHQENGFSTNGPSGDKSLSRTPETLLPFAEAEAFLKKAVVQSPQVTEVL", "UniProt P49006": "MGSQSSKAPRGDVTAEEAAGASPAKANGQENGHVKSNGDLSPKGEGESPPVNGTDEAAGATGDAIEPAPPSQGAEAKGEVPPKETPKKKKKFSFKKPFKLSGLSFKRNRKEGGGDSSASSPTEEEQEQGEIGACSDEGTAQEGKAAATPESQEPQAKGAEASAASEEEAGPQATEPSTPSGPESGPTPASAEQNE", "UniProt Q70IA6": "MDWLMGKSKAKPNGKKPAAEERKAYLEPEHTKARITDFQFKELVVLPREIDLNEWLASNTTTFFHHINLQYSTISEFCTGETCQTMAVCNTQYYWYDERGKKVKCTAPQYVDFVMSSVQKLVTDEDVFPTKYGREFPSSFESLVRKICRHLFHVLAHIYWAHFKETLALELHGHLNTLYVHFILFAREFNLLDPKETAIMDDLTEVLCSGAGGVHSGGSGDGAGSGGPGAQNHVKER", "UniProt Q7Z3U7": "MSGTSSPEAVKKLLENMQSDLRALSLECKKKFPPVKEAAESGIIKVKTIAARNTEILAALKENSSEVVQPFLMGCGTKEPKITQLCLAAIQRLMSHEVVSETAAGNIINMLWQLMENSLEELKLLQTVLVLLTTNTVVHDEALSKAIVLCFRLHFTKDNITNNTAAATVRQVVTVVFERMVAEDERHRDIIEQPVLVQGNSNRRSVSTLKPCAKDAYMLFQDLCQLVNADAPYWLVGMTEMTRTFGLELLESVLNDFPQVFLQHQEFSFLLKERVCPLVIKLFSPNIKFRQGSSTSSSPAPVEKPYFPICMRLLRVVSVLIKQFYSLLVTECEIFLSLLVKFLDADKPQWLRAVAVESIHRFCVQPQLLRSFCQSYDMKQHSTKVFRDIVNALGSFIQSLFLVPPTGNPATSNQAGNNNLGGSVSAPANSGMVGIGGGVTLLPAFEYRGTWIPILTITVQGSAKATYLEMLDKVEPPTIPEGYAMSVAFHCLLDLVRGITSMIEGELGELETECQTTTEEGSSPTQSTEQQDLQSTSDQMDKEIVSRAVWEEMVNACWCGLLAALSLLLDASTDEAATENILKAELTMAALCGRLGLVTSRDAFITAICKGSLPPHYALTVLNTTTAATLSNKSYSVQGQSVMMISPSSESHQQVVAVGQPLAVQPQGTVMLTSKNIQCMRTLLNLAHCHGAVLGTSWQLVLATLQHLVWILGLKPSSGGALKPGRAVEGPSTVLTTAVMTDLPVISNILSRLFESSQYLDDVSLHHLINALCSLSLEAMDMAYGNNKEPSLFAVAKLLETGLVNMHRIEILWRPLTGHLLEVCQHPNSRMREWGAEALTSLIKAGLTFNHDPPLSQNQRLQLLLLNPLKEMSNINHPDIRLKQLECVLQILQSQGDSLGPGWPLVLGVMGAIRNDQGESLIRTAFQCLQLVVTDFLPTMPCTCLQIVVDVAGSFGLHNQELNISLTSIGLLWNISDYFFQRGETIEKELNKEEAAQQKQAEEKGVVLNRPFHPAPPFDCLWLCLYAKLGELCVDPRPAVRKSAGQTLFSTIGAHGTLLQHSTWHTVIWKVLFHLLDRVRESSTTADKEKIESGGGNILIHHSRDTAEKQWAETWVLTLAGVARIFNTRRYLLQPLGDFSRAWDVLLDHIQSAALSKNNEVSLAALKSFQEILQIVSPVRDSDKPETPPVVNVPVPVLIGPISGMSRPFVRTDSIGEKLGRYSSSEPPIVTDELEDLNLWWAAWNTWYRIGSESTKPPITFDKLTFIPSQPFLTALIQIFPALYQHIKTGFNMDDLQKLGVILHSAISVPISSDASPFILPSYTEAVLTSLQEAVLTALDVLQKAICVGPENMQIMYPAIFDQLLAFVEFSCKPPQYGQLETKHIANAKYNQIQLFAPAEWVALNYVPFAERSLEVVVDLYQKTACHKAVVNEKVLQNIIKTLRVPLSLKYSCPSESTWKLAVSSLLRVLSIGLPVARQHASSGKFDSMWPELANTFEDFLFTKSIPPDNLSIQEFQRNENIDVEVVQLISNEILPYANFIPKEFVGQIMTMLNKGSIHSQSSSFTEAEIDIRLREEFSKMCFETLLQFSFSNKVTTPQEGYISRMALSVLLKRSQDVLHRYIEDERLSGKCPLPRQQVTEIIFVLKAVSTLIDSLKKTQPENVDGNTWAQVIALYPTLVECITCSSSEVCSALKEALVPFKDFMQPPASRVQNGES", "UniProt Q13064": "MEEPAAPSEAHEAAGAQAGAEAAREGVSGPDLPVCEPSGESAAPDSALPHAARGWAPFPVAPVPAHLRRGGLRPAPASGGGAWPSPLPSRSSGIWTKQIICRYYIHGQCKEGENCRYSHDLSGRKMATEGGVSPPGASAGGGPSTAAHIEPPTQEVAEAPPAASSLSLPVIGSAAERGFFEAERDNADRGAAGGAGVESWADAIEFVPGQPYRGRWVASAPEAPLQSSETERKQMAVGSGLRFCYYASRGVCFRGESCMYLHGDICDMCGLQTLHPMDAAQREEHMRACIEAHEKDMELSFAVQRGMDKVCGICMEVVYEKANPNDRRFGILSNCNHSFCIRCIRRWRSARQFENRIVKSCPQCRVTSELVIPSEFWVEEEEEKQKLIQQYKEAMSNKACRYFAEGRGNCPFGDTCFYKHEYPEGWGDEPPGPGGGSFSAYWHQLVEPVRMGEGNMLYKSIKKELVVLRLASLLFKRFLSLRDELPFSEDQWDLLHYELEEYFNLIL", "UniProt Q96II8": "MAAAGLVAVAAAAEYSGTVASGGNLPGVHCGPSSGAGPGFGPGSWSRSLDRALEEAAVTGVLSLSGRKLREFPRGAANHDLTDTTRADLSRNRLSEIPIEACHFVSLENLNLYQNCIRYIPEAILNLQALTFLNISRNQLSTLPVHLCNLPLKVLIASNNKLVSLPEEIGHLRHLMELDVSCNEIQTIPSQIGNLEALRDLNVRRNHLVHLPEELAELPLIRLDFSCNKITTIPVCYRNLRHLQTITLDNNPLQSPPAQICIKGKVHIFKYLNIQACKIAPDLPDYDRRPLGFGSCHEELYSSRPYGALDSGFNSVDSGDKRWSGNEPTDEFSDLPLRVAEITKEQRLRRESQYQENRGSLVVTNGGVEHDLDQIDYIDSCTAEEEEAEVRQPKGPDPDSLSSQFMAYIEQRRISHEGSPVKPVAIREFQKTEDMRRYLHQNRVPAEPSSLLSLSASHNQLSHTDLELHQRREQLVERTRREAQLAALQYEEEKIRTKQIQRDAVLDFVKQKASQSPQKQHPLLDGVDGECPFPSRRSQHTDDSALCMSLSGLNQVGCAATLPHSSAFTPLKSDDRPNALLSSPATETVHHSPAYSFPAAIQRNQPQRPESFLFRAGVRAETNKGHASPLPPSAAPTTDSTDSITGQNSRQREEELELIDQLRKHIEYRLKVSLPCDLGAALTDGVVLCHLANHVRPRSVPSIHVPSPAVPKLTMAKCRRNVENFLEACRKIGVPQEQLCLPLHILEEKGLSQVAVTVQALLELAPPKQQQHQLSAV", "UniProt Q96S90": "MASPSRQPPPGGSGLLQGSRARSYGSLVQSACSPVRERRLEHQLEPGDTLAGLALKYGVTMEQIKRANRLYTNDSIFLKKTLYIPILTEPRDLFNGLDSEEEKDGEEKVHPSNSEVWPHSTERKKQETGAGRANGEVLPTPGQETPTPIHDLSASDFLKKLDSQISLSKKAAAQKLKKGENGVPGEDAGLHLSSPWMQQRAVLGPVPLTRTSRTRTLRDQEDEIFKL", "UniProt Q96T76": "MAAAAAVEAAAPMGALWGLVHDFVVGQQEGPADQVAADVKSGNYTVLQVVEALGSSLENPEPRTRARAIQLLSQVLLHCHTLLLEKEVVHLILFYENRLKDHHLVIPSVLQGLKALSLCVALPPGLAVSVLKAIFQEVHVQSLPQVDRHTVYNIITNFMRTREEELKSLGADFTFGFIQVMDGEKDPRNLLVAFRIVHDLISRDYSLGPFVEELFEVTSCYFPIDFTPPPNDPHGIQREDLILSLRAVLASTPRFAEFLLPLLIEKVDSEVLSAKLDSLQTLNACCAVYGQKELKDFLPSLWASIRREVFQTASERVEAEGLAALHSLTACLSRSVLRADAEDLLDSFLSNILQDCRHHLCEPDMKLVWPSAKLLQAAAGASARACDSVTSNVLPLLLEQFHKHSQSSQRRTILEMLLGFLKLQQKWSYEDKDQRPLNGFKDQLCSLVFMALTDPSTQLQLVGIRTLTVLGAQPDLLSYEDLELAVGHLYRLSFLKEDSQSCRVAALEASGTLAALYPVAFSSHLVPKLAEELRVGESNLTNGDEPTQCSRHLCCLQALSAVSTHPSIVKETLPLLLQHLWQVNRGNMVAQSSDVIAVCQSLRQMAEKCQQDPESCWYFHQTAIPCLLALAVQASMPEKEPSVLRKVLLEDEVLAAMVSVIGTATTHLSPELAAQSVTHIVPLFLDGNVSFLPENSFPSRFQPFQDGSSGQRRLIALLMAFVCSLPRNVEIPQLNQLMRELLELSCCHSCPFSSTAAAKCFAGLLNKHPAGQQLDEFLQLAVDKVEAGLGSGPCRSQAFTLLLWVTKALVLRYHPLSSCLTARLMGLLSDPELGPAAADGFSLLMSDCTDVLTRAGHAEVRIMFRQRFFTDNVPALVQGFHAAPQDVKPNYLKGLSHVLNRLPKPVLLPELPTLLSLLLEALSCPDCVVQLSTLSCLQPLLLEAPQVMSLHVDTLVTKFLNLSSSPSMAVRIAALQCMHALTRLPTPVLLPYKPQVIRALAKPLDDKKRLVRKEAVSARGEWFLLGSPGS", "UniProt Q14149": "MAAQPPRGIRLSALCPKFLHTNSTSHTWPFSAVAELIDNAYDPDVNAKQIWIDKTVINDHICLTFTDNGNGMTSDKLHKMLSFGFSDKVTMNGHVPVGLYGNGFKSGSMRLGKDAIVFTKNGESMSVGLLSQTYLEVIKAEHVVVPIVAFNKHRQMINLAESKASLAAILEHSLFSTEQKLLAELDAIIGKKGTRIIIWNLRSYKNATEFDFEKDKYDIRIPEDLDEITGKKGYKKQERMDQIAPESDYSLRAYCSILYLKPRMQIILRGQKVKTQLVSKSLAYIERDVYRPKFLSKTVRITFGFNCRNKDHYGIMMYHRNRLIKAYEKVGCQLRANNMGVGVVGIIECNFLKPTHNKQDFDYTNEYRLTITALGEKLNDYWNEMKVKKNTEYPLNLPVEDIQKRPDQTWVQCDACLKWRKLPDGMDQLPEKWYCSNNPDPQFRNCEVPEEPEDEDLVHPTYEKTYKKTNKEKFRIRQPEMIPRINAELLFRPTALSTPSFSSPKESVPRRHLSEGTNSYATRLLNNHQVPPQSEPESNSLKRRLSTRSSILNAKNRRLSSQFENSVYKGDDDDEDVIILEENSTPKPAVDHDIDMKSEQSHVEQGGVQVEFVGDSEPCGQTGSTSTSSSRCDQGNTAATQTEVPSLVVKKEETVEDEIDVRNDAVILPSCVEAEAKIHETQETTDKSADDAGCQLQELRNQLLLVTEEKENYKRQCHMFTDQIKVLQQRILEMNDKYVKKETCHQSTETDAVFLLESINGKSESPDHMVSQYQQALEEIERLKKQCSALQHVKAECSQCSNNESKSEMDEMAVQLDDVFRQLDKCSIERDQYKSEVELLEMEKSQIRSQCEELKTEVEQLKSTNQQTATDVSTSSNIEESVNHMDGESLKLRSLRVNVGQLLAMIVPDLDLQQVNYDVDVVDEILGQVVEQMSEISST"},
  "source": "the supplement of paper PMC7666118",
  "note": "Some of the results follow.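 The calls were made as follows: active = dose-dependent thermal stabilisation significant by F-test of dose-response against flat model at 10% FDR; inactive = not significant.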",
  "data": [
    {"compound": "Nc1nc2c(ncn2[C@@H]2O[C@H](COP(=O)(O)OP(=O)(O)OP(=O)(O)O)[C@@H](O)[C@H]2O)c(=O)[nH]1", "assay": "dose-dependent thermal stabilisation call (2D-TPP, DLPTP, 10% FDR) (binary (1 = stabilised)); higher = stabilised by the compound", "conditions": "system: Jurkat gel-filtered lysate; concentration range 1-500 µM", "procedure": "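2D thermal proteome profiling in gel-filtered Jurkat E6.1 lysate (2 mg/ml) treated with NaGTP (0, 1, 10, 100, 500 uM) for 10 min at room temperature, then heated 3 min at one of 12 temperatures (42-63.9 C). Soluble protein was quantified by TMT10 MS. The value is the DLPTP call of the paper: dose-dependent thermal stabilisation over all temperatures at 10% FDR (F-test of a dose-response against a flat model); one experiment, one call per tested protein.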", "values": [
      {"target": "MAP7D1 (UniProt Q3KQU3)", "dose-dependent thermal stabilisation call": "inactive: 0"},
      {"target": "LTV1 (UniProt Q96GA3)", "dose-dependent thermal stabilisation call": "inactive: 0"},
      {"target": "MRPS28 (UniProt Q9Y2Q9)", "dose-dependent thermal stabilisation call": "inactive: 0"},
      {"target": "MFHAS1 (UniProt Q9Y4C4)", "dose-dependent thermal stabilisation call": "active: 1"},
      {"target": "MARCKSL1 (UniProt P49006)", "dose-dependent thermal stabilisation call": "inactive: 0"},
      {"target": "MINDY3 (UniProt Q9H8M7)", "dose-dependent thermal stabilisation call": "inactive: 0"},
      {"target": "MOB2 (UniProt Q70IA6)", "dose-dependent thermal stabilisation call": "active: 1"},
      {"target": "MON2 (UniProt Q7Z3U7)", "dose-dependent thermal stabilisation call": "active: 1"},
      {"target": "MKRN3 (UniProt Q13064)", "dose-dependent thermal stabilisation call": "inactive: 0"},
      {"target": "MAGED2 (UniProt Q9UNF1)", "dose-dependent thermal stabilisation call": "inactive: 0"},
      {"target": "MPP6 (UniProt Q9NZW5)", "dose-dependent thermal stabilisation call": "inactive: 0"},
      {"target": "MOB1B (UniProt Q7L9L4)", "dose-dependent thermal stabilisation call": "inactive: 0"},
      {"target": "MCEE (UniProt Q96PE7)", "dose-dependent thermal stabilisation call": "inactive: 0"},
      {"target": "MLH1 (UniProt P40692)", "dose-dependent thermal stabilisation call": "inactive: 0"},
      {"target": "MLLT10 (UniProt P55197)", "dose-dependent thermal stabilisation call": "inactive: 0"},
      {"target": "MRPL12 (UniProt P52815)", "dose-dependent thermal stabilisation call": "inactive: 0"},
      {"target": "MIS18A (UniProt Q9NYP9)", "dose-dependent thermal stabilisation call": "inactive: 0"},
      {"target": "METTL5 (UniProt Q9NRN9)", "dose-dependent thermal stabilisation call": "inactive: 0"},
      {"target": "MAP4K4 (UniProt O95819)", "dose-dependent thermal stabilisation call": "inactive: 0"},
      {"target": "MDP1 (UniProt Q86V88)", "dose-dependent thermal stabilisation call": "inactive: 0"},
      {"target": "MARK3 (UniProt P27448)", "dose-dependent thermal stabilisation call": "active: 1"},
      {"target": "LRCH3 (UniProt Q96II8)", "dose-dependent thermal stabilisation call": "inactive: 0"},
      {"target": "LYSMD1 (UniProt Q96S90)", "dose-dependent thermal stabilisation call": "inactive: 0"},
      {"target": "MRPS31 (UniProt Q92665)", "dose-dependent thermal stabilisation call": "inactive: 0"},
      {"target": "MVK (UniProt Q03426)", "dose-dependent thermal stabilisation call": "active: 1"},
      {"target": "MPP1 (UniProt Q00013)", "dose-dependent thermal stabilisation call": "active: 1"},
      {"target": "MMS19 (UniProt Q96T76)", "dose-dependent thermal stabilisation call": "active: 1"},
      {"target": "MGA (UniProt Q8IWI9)", "dose-dependent thermal stabilisation call": "inactive: 0"},
      {"target": "MYH9 (UniProt P35579)", "dose-dependent thermal stabilisation call": "inactive: 0"},
      {"target": "MORF4L2 (UniProt Q15014)", "dose-dependent thermal stabilisation call": "inactive: 0"},
      {"target": "LRRC45 (UniProt Q96CN5)", "dose-dependent thermal stabilisation call": "inactive: 0"},
      {"target": "MAML1 (UniProt Q92585)", "dose-dependent thermal stabilisation call": "inactive: 0"},
      {"target": "MED27 (UniProt Q6P2C8)", "dose-dependent thermal stabilisation call": "inactive: 0"},
      {"target": "MICALL1 (UniProt Q8N3F8)", "dose-dependent thermal stabilisation call": "inactive: 0"},
      {"target": "MORC3 (UniProt Q14149)", "dose-dependent thermal stabilisation call": "inactive: 0"},
      {"target": "MIER1 (UniProt Q8N108)", "dose-dependent thermal stabilisation call": "inactive: 0"},
      {"target": "MAVS (UniProt Q7Z434)", "dose-dependent thermal stabilisation call": "inactive: 0"},
      {"target": "MAGI3 (UniProt Q5TCQ9)", "dose-dependent thermal stabilisation call": "inactive: 0"},
      {"target": "MMAB (UniProt Q96EY8)", "dose-dependent thermal stabilisation call": "inactive: 0"},
      {"target": "MAP1LC3B2 (UniProt A6NCE7)", "dose-dependent thermal stabilisation call": "inactive: 0"}
    ]}
  ]
}
